# Some of these results come from one statement about several compounds together. Some compounds share one range, which may span the group rather than tell each member. Square brackets hold non-standard residues; d marks the D form. Peptide text beside a SMILES is read from it. * marks the point of attachment. Biotin = O=C1N[C@H]2[C@H](CS[C@H]2CCCCC(=O)*)N1
# Tested on: ARPE-19 human retinal pigment epithelial cell monolayers
# Test: Cell proliferation at scratch edge (PCNA staining)
# Type: cell-based
# Settings: ARPE-19 cells, 10 nM, serum-free, 24 hours after scratch; compared to control
# From the text: Re-epithelialization of a wound area require proliferation of cells at the wound edge, which can be impaired in most wounds due to lack of blood flow to deliver nutrients and/or growth factor(s) that can be necessary for cell proliferation. Cell proliferation in the wound edge can be monitored by proliferating cell nuclear antigen (PCNA) staining. To mimic the microenvironment of wounds in vitro, serum-free medium was used for the scratch assay in cell cultures.
# Proliferating cells were identified by immunostaining with antibody to proliferating cell nuclear antigen (PCNA) according to standard procedures as presented in IHC World. PCNA staining was performed using the same plate of cells after determination of scratch area. […] All cell nuclei stain blue with Hoechst, but nuclei of proliferating cells stain red. The number of proliferating cells per field was quantified by the intensity of red nuclear stain and normalized to intensity of blue nuclear stain (determined by Nikon NIS-Elements Imaging Software).
row,SMILES,"increase of the percent of proliferating cells at the edge of the scratch, FIG. 23"
1,"N=C(N)NCCC[C@@H](NC(=O)CCCC[C@@H]1SC[C@@H]2NC(=O)N[C@@H]21)C(=O)N[C@@H](Cc1ccc(O)cc1)C(=O)N[C@H](CCCNC(=N)N)C(=O)N[C@@H](Cc1ccccc1)C(=O)N[C@@H](CCCCNC(=O)CCCC[C@@H]1SC[C@@H]2NC(=O)N[C@@H]21)C(N)=O [SPN16, D-Biotin-D-Arg-L-Tyr-D-Arg-L-Phe-L-Lys(biotinyl)-NH2] (Biotin-[dR]Y[dR]FK(Biotin)-NH2)",35-100%
2,"N=C(N)NCCC[C@@H](N)C(=O)N[C@@H](Cc1ccc(O)cc1)C(=O)N[C@H](CCCNC(=N)N)C(=O)N[C@@H](Cc1ccccc1)C(=O)N[C@@H](CCCCNC(=O)CCCC[C@@H]1SC[C@@H]2NC(=O)N[C@@H]21)C(N)=O [SPN15, D-Arg-L-Tyr-D-Arg-L-Phe-L-Lys(biotinyl)-NH2] (H-[dR]Y[dR]FK(Biotin)-NH2; N-terminus assumed)",35-100%
